According to the supplement of paper PMC9549374:
The other results are listed elsewhere or left out. Cut-off read from the data, not from the text of the source: active = 2-fold of DMSO or more and inactive = the rest. Single values of this set are uncertain. Some low values are a fixed figure set by the source, not a measured ratio.

Test system: CM7/1-hgem mouse ES cell-derived cardiomyocytes
Test: maximal number of mAG-hGem(1/110)-positive cardiomyocytes over 96 h, fold-change vs DMSO; higher = more cardiomyocyte cell cycle activity
Details: 1 µM; 96 (max over 12 h time points) h

`CO[C@H]1C[C@@H]2CC[C@@H](C)[C@@](O)(O2)C(=O)C(=O)N2CCCC[C@H]2C(=O)O[C@H]([C@H](C)C[C@@H]2CC[C@@H](O)[C@H](OC)C2)CC(=O)[C@H](C)/C=C(\C)[C@@H](O)[C@@H](OC)C(=O)[C@H](C)C[C@H](C)/C=C/C=C/C=C/1C` was tested, and the maximal number was inactive: 0.

With `N#CC(c1ccc(Cl)cc1)c1c(Cl)cc(-n2ncc(=O)[nH]c2=O)cc1Cl` (configuration not stated) the maximal number was inactive: 1.

In the case of `COC(=O)CC1C(C)(C)C(OC(C)=O)[C@@H]2[C@@H](OC(C)=O)[C@]34O[C@@]2(O)[C@]1(C)C3CC[C@]1(C)C4=CC(=O)O[C@H]1c1ccoc1` (some centres not stated), the maximal number is reported as inactive: 1.

`C#C[C@]1(O)CC[C@H]2[C@@H]3[C@H](C)CC4=C(CCC(=O)C4)[C@H]3CC[C@@]21C` was tested, and the maximal number was inactive: 1.

`CC(=O)OCC(OC(C)=O)C(OC(C)=O)C(OC(C)=O)C(OC(C)=O)C(COC(C)=O)OC(C)=O` (configuration not stated) was tested, and the maximal number was inactive: 1.

In the case of `CC(=O)O[C@H]1CC[C@]2(C)[C@H]3CC=C4[C@@H]5CC(C)(C)CC[C@]5(C)CC[C@@]4(C)[C@]3(C)CC[C@H]2C1(C)C` [beta-AMYRIN ACETATE], the maximal number is reported as inactive: 1.

For `Cn1c(=O)c2nc(C3CCCC3)[nH]c2n(C)c1=O`, the maximal number was inactive: 1.

`COc1ccc(C(=O)/C=C/c2ccccc2)cc1` was tested, and the maximal number was inactive: 1.

In the case of `COc1c(OC)c2occc2c2oc(=O)ccc12`, the maximal number is reported as inactive: 1.

For `CC[C@H](/C=C/[C@@H](C)[C@H]1CC[C@H]2[C@@H]3CC=C4C[C@@H](O)CC[C@]4(C)[C@H]3CC[C@]12C)C(C)C`, the maximal number was inactive: 1.

In the case of `CN1CCc2c(c3ccccc3n2Cc2ccccc2)C1`, the maximal number is reported as inactive: 1.

`C=C1c2cccc(O)c2C(=O)C2=C(O)[C@]3(O)C(=O)C(C(N)=O)=C(O)[C@@H](N(C)C)[C@@H]3[C@@H](O)[C@H]12` was tested, and the maximal number was inactive: 1.

For `O=C(Oc1cc(O)cc2c1C[C@@H](OC(=O)c1cc(O)c(O)c(O)c1)[C@@H](c1cc(O)c(O)c(O)c1)O2)c1cc(O)c(O)c(O)c1`, the maximal number was inactive: 0.

`CCCCCCCCCCOc1c(OC)cc(C(N)=O)cc1OC` was tested, and the maximal number was inactive: 1.

For `CC(C)OC(=O)C(C)(C)Oc1ccc(C(=O)c2ccc(Cl)cc2)cc1`, the maximal number was inactive: 1.

With `Cc1cc(O)c(C=O)c2c1C(=O)Oc1c(COC(=O)/C=C/C(=O)O)c(O)c(C(=O)O)c(C)c1O2` the maximal number was inactive: 1.

For `COc1ccc2c(c1)OCC(Cc1ccc(OC)c(O)c1)C2=O` (configuration not stated), the maximal number was inactive: 0.

With `COc1cc([C@@H]2c3cc4c(cc3[C@@H](O[C@@H]3O[C@@H]5CO[C@@H](c6cccs6)O[C@H]5[C@H](O)[C@H]3O)[C@H]3COC(=O)[C@H]23)OCO4)cc(OC)c1O` the maximal number was inactive: 1.

`CC1(C)C[C@@H]2C(=O)CC[C@H]3O[C@]3(C)CC[C@H]21` was tested, and the maximal number was inactive: 1.

With `Oc1cc(O)c2c(c1)O[C@H](c1ccc(O)c(O)c1)[C@H](O)C2` the maximal number was inactive: 1.

`CC(C(=O)O)c1cccc(Oc2ccccc2)c1` (configuration not stated) was tested, and the maximal number was inactive: 1.

In the case of `CC(=O)OCC(=O)[C@@]12N=C(C)O[C@@H]1C[C@H]1[C@@H]3CCC4=CC(=O)C=C[C@]4(C)[C@H]3[C@@H](O)C[C@@]12C`, the maximal number is reported as inactive: 1.

`COc1cc2c(cc1OC)C(=O)OC2` was tested, and the maximal number was inactive: 1.

In the case of `COC(=O)c1c(OC)cc2c(c1C)Oc1c(Cl)c(O)c(Cl)c(C)c1C(=O)O2`, the maximal number is reported as inactive: 1.

For `C[C@]1(Cn2ccnn2)[C@H](C(=O)O)N2C(=O)C[C@H]2S1(=O)=O`, the maximal number was inactive: 1.

For `C#C[C@]1(O)CC[C@H]2[C@@H]3CCC4=CC(=O)CC[C@@H]4[C@H]3CC[C@@]21CC`, the maximal number was inactive: 1.

In the case of `CCC(CCC(C)C1CCC2C3CCC4CC(O)CCC4(C)C3CCC12C)C(C)C` (configuration not stated), the maximal number is reported as inactive: 1.

With `CC1(C)CC2C1CCC1(C)OC1CCC2(C)O` (configuration not stated) the maximal number was inactive: 1.

For `CC(=O)O[C@H]1CC[C@]2(C)[C@H]3CC[C@@]4(C)[C@H](c5ccoc5)OC(=O)[C@H]5O[C@]54[C@]3(C)[C@H](OC(C)=O)C[C@H]2C1(C)C` [3beta-ACETOXYDEOXODIHYDROGEDUNIN], the maximal number was inactive: 1.

With `CC(COc1ccccc1)N(CCCl)Cc1ccccc1` (configuration not stated) the maximal number was inactive: 1.

For `C=C(C)[C@@H]1CC[C@]2(C(=O)O)CC[C@]3(C)[C@H](CC[C@@H]4[C@@]5(C)CC[C@H](O)C(C)(C)[C@@H]5CC[C@]43C)[C@@H]12`, the maximal number was inactive: 1.

For `CC(C)=CCc1c(O)cc2oc(C)cc(=O)c2c1O`, the maximal number was inactive: 1.

With `CCCN(CCC)C(=O)C(CCC(=O)O)NC(=O)c1ccccc1` (configuration not stated) the maximal number was inactive: 1.

`COc1c(-c2coc3cc4c(cc3c2=O)CC(O)C(C)(C)O4)ccc2c1C=CC(C)(C)O2` (configuration not stated) was tested, and the maximal number was inactive: 0.

For `CCCCC(CC)COC(=O)CC(C(=O)OCC(CC)CCCC)S(=O)(=O)O` (configuration not stated), the maximal number was inactive: 1.

In the case of `COc1ccc(C2C(=O)c3ccccc3C2=O)cc1`, the maximal number is reported as inactive: 1.

`CS(C)(=O)=O` was tested, and the maximal number was inactive: 1.

For `O=C(O)/C=C/c1ccc(O)c(O)c1`, the maximal number was inactive: 1.

`Nc1nc(O)c2ncn(CCC(CO)CO)c2n1` was tested, and the maximal number was inactive: 0.

With `O=c1ccc2cc(O)c(O)cc2o1` the maximal number was inactive: 1.

For `COC(=O)CC[C@@H](C)[C@H]1CC[C@H]2[C@@H]3CC[C@@H]4C[C@H](O)CC[C@]4(C)[C@H]3C[C@H](O)[C@]12C`, the maximal number was inactive: 1.

`CC1=C2C(O)C(=O)OC3CC4C(C)(C)C(=O)C=C[C@]4(C)C(CC1)[C@]23C` (some centres not stated) was tested, and the maximal number was inactive: 1.

With `O=C(O)C(=O)O.[NH-][C@@H]1CCCC[C@H]1[NH-].[Pt+2]` the maximal number was inactive: 1.

`C=C(C)[C@H]1COc2cc3oc(=O)ccc3cc2O1` was tested, and the maximal number was inactive: 1.

For `CCN(CC)CCNC(=O)c1ccc(NC(C)=O)cc1`, the maximal number was inactive: 1.

In the case of `CC(C)[C@@H](C)/C=C/[C@@H](C)[C@H]1CC[C@H]2C3=CC=C4C[C@@H](O)CC[C@]4(C)[C@H]3CC[C@]12C`, the maximal number is reported as inactive: 0.5.

`C[C@H]1O[C@@H](n2cc(F)c(=O)[nH]c2=O)[C@H](O)[C@@H]1O` was tested, and the maximal number was inactive: 1.

In the case of `Cc1c(C(=O)O)c(O)cc2c1C(=O)c1c(O)c([C@@H]3O[C@H](CO)[C@@H](O)[C@H](O)[C@H]3O)c(O)c(O)c1C2=O`, the maximal number is reported as inactive: 1.

`CC(=O)C1=C(O)C=C2Oc3c(C(C)=O)c(O)c(C)c(O)c3C2(C)C1=O` (stereo in doubt) was tested, and the maximal number was inactive: 1.

`Nc1ccn([C@H]2CC[C@@H](CO)O2)c(=O)n1` was tested, and the maximal number was inactive: 1.

In the case of `C=CC(C1=CC(=O)C(OC)=CC1=O)c1ccc(OC)cc1` (configuration not stated), the maximal number is reported as inactive: 0.

In the case of `CC[C@H](CC[C@@H](C)[C@H]1CC[C@H]2[C@@H]3CC=C4C[C@@H](OC(C)=O)CC[C@]4(C)[C@H]3CC[C@]12C)C(C)C`, the maximal number is reported as inactive: 1.

For `CO[C@H]1C[C@H](O[C@H]2[C@H](C)[C@@H](O[C@@H]3O[C@H](C)C[C@H](N(C)C)[C@H]3OC(C)=O)[C@@H](C)C[C@@]3(CO3)C(=O)[C@H](C)[C@@H](OC(C)=O)[C@@H](C)[C@@H](C)OC(=O)[C@@H]2C)O[C@@H](C)[C@@H]1OC(C)=O`, the maximal number was inactive: 1.

`CC(C)NCC(O)COc1ccc(CC(N)=O)cc1` (configuration not stated) was tested, and the maximal number was inactive: 1.

`CC(=O)OCC(=O)[C@@]12OC3(CCCC3)O[C@@H]1C[C@H]1[C@@H]3CCC4=CC(=O)C=C[C@]4(C)[C@@]3(F)[C@@H](O)C[C@@]12C` was tested, and the maximal number was inactive: 1.

For `COC(=O)C[C@H]1C(C)(C)[C@@H](OC(C)=O)[C@@H]2CC3=C4CC(=O)O[C@@H](c5ccoc5)[C@]4(C)CC[C@@H]3[C@@]1(C)C2=O`, the maximal number was inactive: 0.

For `COc1cc(CNC(=O)CCCC/C=C/C(C)C)ccc1O`, the maximal number was inactive: 1.

`O=C(O)/C=C/C=C/c1ccccc1` was tested, and the maximal number was inactive: 1.

For `C=CC(C1=CC(=O)C=CC1=O)c1ccccc1` (configuration not stated), the maximal number was inactive: 0.5.

With `C=C1CCC2C(CC2(C)C)C(=O)CCC1O` (configuration not stated) the maximal number was inactive: 1.

In the case of `C[C@H](CCC(=O)O)[C@H]1CC[C@H]2[C@@H]3[C@H](O)C[C@@H]4C[C@H](O)CC[C@]4(C)[C@H]3CC[C@]12C`, the maximal number is reported as inactive: 0.

With `Nc1nc2[nH]cc(CCc3ccc(C(=O)N[C@@H](CCC(=O)O)C(=O)O)cc3)c2c(=O)[nH]1` the maximal number was inactive: 0.5.
